Results on 2 molecules are retold here after article doi:10.1101/2025.03.12.642832.

Amino acid sequences for entries named in this document (tags omitted).
UniProt Q869W9, whole entry: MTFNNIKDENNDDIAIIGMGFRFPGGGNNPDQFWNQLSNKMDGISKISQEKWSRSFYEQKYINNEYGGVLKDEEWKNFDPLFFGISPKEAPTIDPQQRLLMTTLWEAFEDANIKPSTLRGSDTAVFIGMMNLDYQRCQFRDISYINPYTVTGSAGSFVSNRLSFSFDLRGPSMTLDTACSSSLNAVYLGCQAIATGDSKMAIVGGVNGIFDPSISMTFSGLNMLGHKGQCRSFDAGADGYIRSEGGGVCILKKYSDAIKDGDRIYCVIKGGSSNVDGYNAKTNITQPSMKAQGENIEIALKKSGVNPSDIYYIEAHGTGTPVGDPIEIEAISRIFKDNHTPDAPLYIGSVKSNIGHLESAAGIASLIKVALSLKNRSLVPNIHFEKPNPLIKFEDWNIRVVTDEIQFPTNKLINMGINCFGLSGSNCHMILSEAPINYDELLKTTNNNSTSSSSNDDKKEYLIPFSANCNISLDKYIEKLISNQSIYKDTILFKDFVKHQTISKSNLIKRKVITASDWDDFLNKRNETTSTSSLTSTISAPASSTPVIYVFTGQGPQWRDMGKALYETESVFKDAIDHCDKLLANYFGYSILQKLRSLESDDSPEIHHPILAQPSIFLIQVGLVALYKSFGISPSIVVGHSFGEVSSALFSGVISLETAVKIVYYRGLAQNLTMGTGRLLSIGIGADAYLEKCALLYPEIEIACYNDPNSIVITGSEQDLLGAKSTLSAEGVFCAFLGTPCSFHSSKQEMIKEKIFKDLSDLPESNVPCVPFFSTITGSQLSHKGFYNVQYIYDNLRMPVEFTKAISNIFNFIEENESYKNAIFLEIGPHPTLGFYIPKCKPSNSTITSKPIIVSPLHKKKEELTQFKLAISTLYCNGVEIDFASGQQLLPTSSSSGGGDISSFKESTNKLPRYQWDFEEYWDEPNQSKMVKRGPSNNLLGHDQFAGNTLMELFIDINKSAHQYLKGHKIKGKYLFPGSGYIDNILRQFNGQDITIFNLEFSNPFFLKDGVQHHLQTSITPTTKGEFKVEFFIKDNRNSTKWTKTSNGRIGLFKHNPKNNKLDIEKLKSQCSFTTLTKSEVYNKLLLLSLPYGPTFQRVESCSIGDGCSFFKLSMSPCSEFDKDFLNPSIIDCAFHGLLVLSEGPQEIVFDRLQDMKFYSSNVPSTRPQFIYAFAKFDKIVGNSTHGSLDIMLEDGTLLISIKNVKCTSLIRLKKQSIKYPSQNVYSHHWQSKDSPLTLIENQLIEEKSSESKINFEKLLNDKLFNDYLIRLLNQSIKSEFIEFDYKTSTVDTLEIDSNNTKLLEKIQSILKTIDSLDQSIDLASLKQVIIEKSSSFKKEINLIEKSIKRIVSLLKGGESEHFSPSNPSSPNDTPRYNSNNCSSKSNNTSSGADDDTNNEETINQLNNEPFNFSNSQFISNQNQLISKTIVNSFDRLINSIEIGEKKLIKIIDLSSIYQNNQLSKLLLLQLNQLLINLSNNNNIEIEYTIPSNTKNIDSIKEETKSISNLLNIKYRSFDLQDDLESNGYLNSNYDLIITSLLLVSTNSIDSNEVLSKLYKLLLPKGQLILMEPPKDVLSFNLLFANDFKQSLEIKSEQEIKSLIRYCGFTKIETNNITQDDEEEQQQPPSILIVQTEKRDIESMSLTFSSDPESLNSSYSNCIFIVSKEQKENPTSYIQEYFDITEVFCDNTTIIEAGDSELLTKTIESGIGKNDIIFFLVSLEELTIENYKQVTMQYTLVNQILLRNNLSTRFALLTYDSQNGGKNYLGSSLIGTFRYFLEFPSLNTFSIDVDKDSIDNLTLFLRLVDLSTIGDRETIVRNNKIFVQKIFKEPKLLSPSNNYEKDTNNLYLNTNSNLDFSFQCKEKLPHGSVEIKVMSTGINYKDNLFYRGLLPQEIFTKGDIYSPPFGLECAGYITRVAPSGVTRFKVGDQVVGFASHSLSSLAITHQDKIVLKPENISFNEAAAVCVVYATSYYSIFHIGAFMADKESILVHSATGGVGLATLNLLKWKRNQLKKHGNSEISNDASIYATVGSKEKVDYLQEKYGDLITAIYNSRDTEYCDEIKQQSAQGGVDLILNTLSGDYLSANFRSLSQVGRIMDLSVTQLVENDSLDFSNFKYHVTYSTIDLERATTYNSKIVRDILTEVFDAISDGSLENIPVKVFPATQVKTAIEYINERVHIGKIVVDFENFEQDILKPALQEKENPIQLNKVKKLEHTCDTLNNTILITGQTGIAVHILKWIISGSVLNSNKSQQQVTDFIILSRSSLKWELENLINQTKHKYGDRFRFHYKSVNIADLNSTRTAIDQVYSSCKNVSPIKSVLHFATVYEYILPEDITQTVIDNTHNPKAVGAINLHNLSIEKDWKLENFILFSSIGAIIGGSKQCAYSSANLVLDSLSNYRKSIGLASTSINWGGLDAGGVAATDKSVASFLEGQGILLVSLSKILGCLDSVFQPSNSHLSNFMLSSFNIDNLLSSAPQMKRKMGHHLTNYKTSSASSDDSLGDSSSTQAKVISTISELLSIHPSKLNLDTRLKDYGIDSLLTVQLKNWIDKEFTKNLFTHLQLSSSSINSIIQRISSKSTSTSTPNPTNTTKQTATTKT

Test [1] has as its target polyketide synthase 16 (Pks16) (D. discoideum (endogenous in AX2-214 cells)) (UniProt Q869W9). Description: cryo-EM structure.
In test [2] the target is dihydrolipoyllysine-residue succinyltransferase (Odo2) of the mitochondrial 2-oxoglutarate dehydrogenase complex (D. discoideum (endogenous in AX2-214 cells)) (UniProt Q869Y7). Description: cryo-EM structure.

No constants are given. Whether binding was seen depends on the method and setting. Some binding calls cover weakened binding; strength is not graded here.

Regarding “polyketide synthase 16 (Pks16) (from UniProt Q869W9 1-2603) (enzyme)”, in test [1], the binding result was “binds”.

B1: dihydrolipoyllysine-residue succinyltransferase (Odo2) of the mitochondrial 2-oxoglutarate dehydrogenase complex (enzyme, UniProt Q869Y7 48-439)
chain: FTSLFNNNNVNNTNIKYQRFYSSANDVVIKVPSMGDSISEGTIVAWTKNVGDSVRVDEVVCSIETDKVTIDINAPVSGTIVELFAKEGENVTVGNDLYKIAKGEVAAAPKVEAPKAAEAPKAAAPTPAPKAAETPKAAPAPKSEAPTPAPKSTTTTTSTGPSETRVKMTRIRQRTAQRLKDSQNTAAMLTTFNELDMSALMNMRKTYKDEFEKKHGVKFGFMSAFVKASTIALKEQPIVNASVEENDIVYHNNVNINVAVSAPRGLVVPVIRNCENLSFADIEKEIGRLSGLARNDALAIEDSIGGTFTISNGGVFGSMFGTPIINPPQSAILGMHAIKDRPYVVNGQVVVRPIMYLALTYDHRIIDGREAVTFLKKIKDVLENPERILLEL
Regarding B1, the binding entry in test [2] is “binds”.
